These are yes or no findings as the source states them, for the method shown.
What was measured:
[1] = target: GST-RAD9 (3A)-T292A C-terminus (a.a. 266-391) (human) (UniProt Q99638); experiment: condition: 4 pmol PLK1 with 30 pmol GST-RAD9 in 15 µl; pull-down; GST-RAD9 (3A) (30 pmol) pre-incubated with or without CDK2-Cyclin A2 (0.5 pmol) in 15 µl kinase buffer (50 mM HEPES pH 7.4, 10 mM MgCl2, 1 mM DTT, ATP, 0.1% Triton X-100) at 30 C for 30 min, then with 4 pmol PLK1 (30 C 5 min, 4 C 30 min); captured with GSH-beads 30 min at 4 C; anti-PLK1 blot; both purified
[2] = target: GST-RAD9 (3A) C-terminus (a.a. 266-391), not treated with CDK2-Cyclin A2 (human) (UniProt Q99638); experiment: as above

By UniProt entry, the sequences of proteins in these tests, tags left out. Where a name states a change or a piece, a line headed by the entry shows the natural chain unless it says otherwise.
UniProt Q99638: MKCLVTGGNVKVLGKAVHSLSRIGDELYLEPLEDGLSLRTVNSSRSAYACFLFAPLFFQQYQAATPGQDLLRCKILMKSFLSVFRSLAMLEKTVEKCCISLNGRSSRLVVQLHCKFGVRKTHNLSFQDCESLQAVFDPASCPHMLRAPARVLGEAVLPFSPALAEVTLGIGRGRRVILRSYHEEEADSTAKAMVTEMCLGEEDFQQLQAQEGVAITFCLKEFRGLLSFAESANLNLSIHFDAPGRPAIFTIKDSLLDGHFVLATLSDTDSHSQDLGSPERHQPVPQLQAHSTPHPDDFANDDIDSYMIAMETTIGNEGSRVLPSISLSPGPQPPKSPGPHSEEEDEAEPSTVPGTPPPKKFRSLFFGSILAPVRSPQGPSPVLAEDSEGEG
UniProt P53350: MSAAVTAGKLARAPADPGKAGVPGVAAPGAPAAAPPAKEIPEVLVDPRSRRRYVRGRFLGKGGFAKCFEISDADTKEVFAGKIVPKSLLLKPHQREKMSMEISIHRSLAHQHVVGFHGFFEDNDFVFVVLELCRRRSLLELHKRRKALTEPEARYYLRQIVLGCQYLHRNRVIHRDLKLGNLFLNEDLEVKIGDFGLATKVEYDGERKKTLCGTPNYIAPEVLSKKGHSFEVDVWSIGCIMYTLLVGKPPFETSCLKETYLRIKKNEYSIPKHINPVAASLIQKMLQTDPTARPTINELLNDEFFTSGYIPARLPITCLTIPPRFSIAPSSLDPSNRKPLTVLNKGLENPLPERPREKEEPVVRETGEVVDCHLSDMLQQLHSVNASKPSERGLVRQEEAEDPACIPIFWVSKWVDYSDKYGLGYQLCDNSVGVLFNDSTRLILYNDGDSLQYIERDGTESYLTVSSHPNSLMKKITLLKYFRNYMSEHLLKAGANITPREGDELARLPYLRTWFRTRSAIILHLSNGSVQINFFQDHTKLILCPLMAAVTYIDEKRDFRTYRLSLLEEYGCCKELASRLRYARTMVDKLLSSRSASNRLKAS

binding [1]: no binding
binding [2]: no binding
Substance: PLK1, recombinant (Polo-Like-Kinase1) (from UniProt P53350 1-603) (enzyme)

From paper PMC5736350
